Experimental data taken from patent US7378404B2, “8β-hydrocarbyl-substituted estratrienes for use as selective estrogens” (priority 2000, dated 2008).
At least one structure is not confirmed: it was looked up by name or label, or the drawing left a doubt.

System: estrogen receptor of rat prostates
Test: Competitive binding with 3H-estradiol to estrogen receptor preparation of rat prostate cytosol
Settings: Table 1; estradiol = 100

In the case of `C[C@]12CC[C@@H]3c4ccc(O)cc4CC[C@H]3[C@@H]1CC[C@@H]2O` [Estradiol, reference compound], the “Rat prost. ER (RBA)” value is reported as 100.
